Part of at least one peptide drawing is inferred or uncertain, most often the ends.
Tests used:
Parameters in all cases: unit not given beside the values
[1] = tested on: Salmonella sp - antibiotic-susceptible clinical isolate; assay: MIC microbroth dilution (CLSI); type: cell-based
[2] = tested on: Salmonella sp - multi-drug resistant clinical isolate; assay: MIC microbroth dilution (CLSI); type: cell-based
[3] = tested on: Shigella sp - antibiotic-susceptible clinical isolate; assay: MIC microbroth dilution (CLSI); type: cell-based
[4] = tested on: Clostridium difficile - antibiotic-susceptible clinical isolate; assay: MIC microbroth dilution (CLSI); type: cell-based; conditions: C. difficile antibiotic-susceptible
Experimental: Supplemented Brucella broth (SBB) was used for the anaerobic strains with an inoculum of approximately 10^6 CFU/mL. SBB is a broth consisting of 1% peptone, 0.5% ‘Lab-lemco’, 1% glucose and 0.5% sodium chloride supplemented with 5 μg/L haemin and 1 μg/L vitamin K (both obtained from Sigma Aldrich Ltd.) Yeast and filamentous fungal MIC were performed in MOPS buffered RPMI 1640 medium (MOPS buffer obtained from Sigma Aldrich Ltd., RPMI 1640 obtained from Invitrogen Ltd, Paisley, Scotland). The yeast inocula were in the range 7.5×10^2-4×10^3 CFU/mL and the filamentous fungi approximately 8×10^3-1×10^5 CFU/mL.

[5] = tested on: Haemophilus influenzae - β-lactamase negative clinical isolate; conditions: H. influenzae β-lactamase negative isolate
[6] = tested on: Haemophilus influenzae - β-lactamase positive clinical isolate; conditions: H. influenzae β-lactamase positive isolate
[7] = tested on: Haemophilus influenzae β-lactamase negative ampicillin-resistant clinical isolate; conditions: H. influenzae β-lactamase negative ampicillin-resistant
[8] = tested on: HT2001254 Staphylococcus aureus (MRSA) - PVL positive; conditions: HT2001254 S. aureus (MRSA) PVL positive
[9] = tested on: Streptococcus mitis - macrolide-resistant clinical isolate; conditions: S. mitis macrolide-resistant
[10] = tested on: Clostridium perfringens - antibiotic-susceptible clinical isolate; conditions: C. perfringens antibiotic-susceptible

`N=C(N)NCCC[C@H](NC(=O)[C@H](Cc1ccc(-c2ccc3ccccc3c2)cc1)NC(=O)[C@@H](N)CCCNC(=N)N)C(=O)NCCc1ccccc1` [Compound 1] showed an MIC [1] of 16, an MIC [2] of 16 and an MIC [3] of 32. The MIC [4] was 32, the MIC [5] was ≥128 and the MIC [6] was ≥128. For the same compound, the MIC [7] was ≥128, the MIC [8] was 4 and the MIC [9] was ≥128. For the same compound, the MIC [10] was ≥128.

Source: patent US20240277890A1, “ANTIMICROBIAL ARTICLES COMPRISING POLYURETHANE” (Amicoat AS, priority 2021, published 2024)
